This is one part of the list.

Protein sequences, listed by entry. Tags and fused reporters are not part of them.
UniProt Q0JBA9, entry or part of it: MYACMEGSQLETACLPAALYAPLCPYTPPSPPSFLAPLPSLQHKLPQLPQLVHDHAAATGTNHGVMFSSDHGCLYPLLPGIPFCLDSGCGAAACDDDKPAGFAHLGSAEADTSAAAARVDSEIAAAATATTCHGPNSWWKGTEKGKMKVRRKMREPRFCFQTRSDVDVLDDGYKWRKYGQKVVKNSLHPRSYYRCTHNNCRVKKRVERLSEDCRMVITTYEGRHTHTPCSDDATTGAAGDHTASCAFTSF

For the experiment, the target named is OsWRKY34 (Oryza sativa, UniProt Q0JBA9 1-250). Nature of the experiment: protein-binding microarray (RPBM); PBS, 2% BSA, 51.3 ng/ul salmon testes DNA, 50 uM zinc acetate, 200 nM TF, 25 C, 1 h; high values mean tight binding. Particulars: protein: recombinant; tags: N-terminal polyhistidine and DsRed monomer fusion (pET32a); label: CyDye5-dUTP incorporated in the synthesized complementary strand; 3' TTTTT single-stranded linker to array surface; dsDNA, one strand shown. The method, boiled down:
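Binding signal is defined as the fluorescence intensity of each feature in arbitrary units, read on an Axon 4000B scanner. Transcription factors with N-terminal polyhistidine and DsRed fusions came from E. coli BL21-CodonPlus and were purified on Ni–NTA. They were incubated at 200 nM for 1 h at 25 °C on a custom Agilent array that had been made double-stranded with Cy5-dUTP, with 50 µM zinc acetate present, and the array was washed.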
On to “AATCATCACCTCTACTAGCTAGCTATAGCTCTAGTTCTACCGGAGTCACCTAGTGCAG”, for which the binding signal was 8910 fluorescence intensity (a.u.).

Take “ATTACTGTACCGTGCGTCGATTCGCTTACCTCCTAATACACGGAGTCACCTAGTGCAG”: the binding signal was 13800 fluorescence intensity (a.u.).

Regarding “ATTTATCTCTCCATGGTTACTTGCAAGTTGCAACATCGCTCGGAGTCACCTAGTGCAG”, the binding signal is 8960 fluorescence intensity (a.u.).

Consider “ATCCATGTTGCATTTTATCCTACTGGTACCGTTTCTTTTCCGGAGTCACCTAGTGCAG”, for which the binding signal is 11600 fluorescence intensity (a.u.).

Take “GCCTCAGGTTCGTTCCACCACGGCGCCGCCGCCGCCGATGCGGAGTCACCTAGTGCAG”: the binding signal is 8110 fluorescence intensity (a.u.).

In the case of “TCGATTCCTGCCCGTCCGATCCGCCCTCACGGCCTCACCGCGGAGTCACCTAGTGCAG”, the binding signal was 10600 fluorescence intensity (a.u.).

“GGCCCCTGTTCCGCGGTGCTTTTCCCCAGCCATCACGAGACGGAGTCACCTAGTGCAG”: the binding signal was 11600 fluorescence intensity (a.u.).

Consider “AACAAACCCAGTACACCTATGAGATCTCACCTGCTAACAACGGAGTCACCTAGTGCAG”, for which the binding signal is 10300 fluorescence intensity (a.u.).

In the case of “AGTACATAACAATTTCCACTCCAGTTTGAGATATTTTTTACGGAGTCACCTAGTGCAG”, the binding signal was 8610 fluorescence intensity (a.u.).

Turning to “TGGTTGCTGCAGTCGGGTGGGTGTGTAGTAGACTCTGCGGCGGAGTCACCTAGTGCAG”, the binding signal was 9260 fluorescence intensity (a.u.).

As to “CCCCGCACTCCCGGAGACCCCGACCCAATACCGTCATTTCCGGAGTCACCTAGTGCAG”, the binding signal is 8450 fluorescence intensity (a.u.).

As to “TGGTGGCAGATCGGACAACGGGGAAGACGGTGGGGCGGGGCGGAGTCACCTAGTGCAG”, the binding signal is 9690 fluorescence intensity (a.u.).

Take “TATCTAAAGTATCTTTTATTTATTAATACTATCTCTTTGACGGAGTCACCTAGTGCAG”: the binding signal is 8960 fluorescence intensity (a.u.).

Turning to “AGGAGGGGAGAGACCTAACAGTGGGCCCCAACAATTTTTTCGGAGTCACCTAGTGCAG”, the binding signal is 8580 fluorescence intensity (a.u.).

Consider “CTCCATCGTCTGTCAGTCCAATGCGAGCTACATACCGAGACGGAGTCACCTAGTGCAG”, for which the binding signal is 9190 fluorescence intensity (a.u.).

On to “GGTTGTGCATTATATTATGGAATGGAGGGAGTACTTATCACGGAGTCACCTAGTGCAG”, for which the binding signal was 8840 fluorescence intensity (a.u.).

Regarding “CTAGGCTCCTTTTTTTTTTACGAAAACAGTGTTGACTCCTCGGAGTCACCTAGTGCAG”, the binding signal is 8370 fluorescence intensity (a.u.).

Take “TCCTCTCTTCTTCTTCTTCTTCTTCTTCTTCTTCTTCTTCCGGAGTCACCTAGTGCAG”: the binding signal was 8480 fluorescence intensity (a.u.).

Consider “CTTTTTTTTTTGTTGGGTGGCATTTTAGTATGTTTCTTTTCGGAGTCACCTAGTGCAG”, for which the binding signal was 14800 fluorescence intensity (a.u.).

As to “TTTTGCTACTCCTTCGTTCTCAGTATCCAAATTTAAATTTCGGAGTCACCTAGTGCAG”, the binding signal was 9900 fluorescence intensity (a.u.).

In the case of “GAATACTTGTCAAATCGCTCAGGATTTTACTGCGGGGCGGCGGAGTCACCTAGTGCAG”, the binding signal is 8050 fluorescence intensity (a.u.).

Regarding “TCTTCCTTTCCTTTCCTTTCCTTTCCTTGGCGGCCGGCCACGGAGTCACCTAGTGCAG”, the binding signal was 10400 fluorescence intensity (a.u.).

For the sequence “GCCGCCGCCTCCGCCGCCAGCCTCGCCACCTCCTGCGCCGCGGAGTCACCTAGTGCAG”, the binding signal is 9060 fluorescence intensity (a.u.).

Turning to “AAGAAGTGGTACATATCGTTTTATCTCCATGCATTTCATCCGGAGTCACCTAGTGCAG”, the binding signal was 9700 fluorescence intensity (a.u.).

Regarding “TATTTCCCAATCTCAATAGTCAATAGTATACTTCTTCTCTCGGAGTCACCTAGTGCAG”, the binding signal is 8840 fluorescence intensity (a.u.).

Turning to “TGTCCGCCTTTGATCTCGCTCAAATTCTTCCCAGCCTTATCGGAGTCACCTAGTGCAG”, the binding signal is 9870 fluorescence intensity (a.u.).

Take “AACATATAAACTCAAATCTCCAATTGTTTCCGCTACAAATCGGAGTCACCTAGTGCAG”: the binding signal is 8100 fluorescence intensity (a.u.).

With “AGGAGGGGCAAAAATTAATGTGTAGGTAAAACTTTTATATCGGAGTCACCTAGTGCAG”, the binding signal was 11000 fluorescence intensity (a.u.).

“CGCCCTTCTACCCGGACGACCTCGCTGACTTGCCCGACCACGGAGTCACCTAGTGCAG”: the binding signal is 8970 fluorescence intensity (a.u.).

Consider “GCGGGTTTCGTTTTCTCACTCGCTTGCTTAGCTCGATTGCCGGAGTCACCTAGTGCAG”, for which the binding signal was 10400 fluorescence intensity (a.u.).

Regarding “TTCTCTCTCTCGATCGAACAGGGGTAGGGAAGCGATTAACCGGAGTCACCTAGTGCAG”, the binding signal is 8460 fluorescence intensity (a.u.).

Consider “TTTTTATTCGTTGCTATGCATCATGCTTGATCCTTGCTCACGGAGTCACCTAGTGCAG”, for which the binding signal was 9440 fluorescence intensity (a.u.).

On to “AACCCTGATTTCCGTGCTCAACGTTTGACCGTCCGTCTTGCGGAGTCACCTAGTGCAG”, for which the binding signal was 12600 fluorescence intensity (a.u.).

On to “GTCGAGCCCAATCCTCCGCCTGTACTTCATCTCCTTCAGACGGAGTCACCTAGTGCAG”, for which the binding signal was 10100 fluorescence intensity (a.u.).

Turning to “CCGTTCTCCAGATCCGCACCGCCACCGCCGCCGCCGCGCGCGGAGTCACCTAGTGCAG”, the binding signal was 9490 fluorescence intensity (a.u.).

Consider “GATTTGTTTCATTGTTCTGATTTGGTTTTGATTTTGATTTCGGAGTCACCTAGTGCAG”, for which the binding signal is 9520 fluorescence intensity (a.u.).

For the sequence “AGCCAATACTTTCTGGAGCTTTCGTACATTGTGCCTTGTGCGGAGTCACCTAGTGCAG”, the binding signal was 8440 fluorescence intensity (a.u.).

As to “GTCCGAGTCTCTTTTCATCATTTCGTCTGCCAACGCAAACCGGAGTCACCTAGTGCAG”, the binding signal was 9120 fluorescence intensity (a.u.).

Regarding “TGGCCCACGCGCGCCTCATCGTCGCCAGCCACGGCAGCTTCGGAGTCACCTAGTGCAG”, the binding signal is 8770 fluorescence intensity (a.u.).

As to “TCAAACCTTCCGGTAGAGCTGCACTTTCTCATGTTTTTTTCGGAGTCACCTAGTGCAG”, the binding signal was 11600 fluorescence intensity (a.u.).

For “AGAGAGATAGTGGTGGTGGTGGTGGGGCACTGAGAATCCACGGAGTCACCTAGTGCAG”, the binding signal is 8080 fluorescence intensity (a.u.).

In the case of “TCCTCTTCAATCTTTCATTCGACCGTTGCATTGACATCCTCGGAGTCACCTAGTGCAG”, the binding signal was 9180 fluorescence intensity (a.u.).
